Results reported in PubChem BioAssay AID504467 (National Center for Advancing Translational Sciences (NCATS), 2011).
Screen size: about 330,000 compounds; about 7,700 (2.3%) were called active. Inconclusive means that the source gave no clear call. Such entries were picked first, then a sample of the others. Calls follow the shape of the dose curve; as a rule, active = well fitted inhibition curve with a large enough effect; inconclusive = small, poorly fitted or top-dose-only effect, or effect the other way; inactive = flat fitted curve, though single readings scatter. Potencies of inconclusive entries are doubtful fits and often do not repeat.

Assay: qHTS screen for small molecules that inhibit ELG1-dependent DNA repair in human embryonic kidney (HEK293T) cells expressing luciferase-tagged ELG1; also: nearly all actives have a fitted effect of over 55% in size
Details: HEK293T ELG1-luciferase reporter, luminescence, 16 h, DNA damage induced by 5-fluorouridine; series mostly up to 46.1 µM
Procedure, shortened: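 DMSO vehicle served as the neutral condition. Each well held 2,000 cells given 5-fluorouridine plus compound; after 16 hr at 37 °C/5% CO2, ONE-Glo was added and luciferase measured 30 min later.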
Potency is read from the fitted curve at half-maximal effect.

| Structure (SMILES) | Potency |
| --- | --- |
| O=C(CCc1nc2ccccc2c(=O)[nH]1)Nc1ccc(F)cc1 | inconclusive: 13 µM [activator, partial curve, poor fit] |
| CSc1ccccc1NC(=O)c1ccc(Br)o1 | inconclusive: 20.6 µM [activator, single point] |
| CC(C)CNC(=O)c1c(N)n(/N=C/c2ccccn2)c2nc3ccccc3nc12 | inconclusive: 4.11 µM [inhibitor, single point] |
| CC(=O)Nc1ccc(OCC(O)CN2CCN(c3cc(Cl)ccc3C)CC2)cc1 (stereo unspecified) | inactive |
| O=[N+]([O-])c1cccc(C2=NC(c3ccccc3)CO2)c1 (stereo unspecified) | inconclusive: 18.4 µM [activator, partial curve] |
| COc1ccc(C(c2nnnn2C2CCCCC2)N2CCN(c3ccc(OC)cc3)CC2)cc1 (stereo unspecified) | inactive |
| CC(C)C(=O)N[C@@H]1c2ccccc2CC[C@@H]1OCc1ccccc1 | inactive |
| CSC1=NC(C(Cl)(Cl)Cl)N=C(c2ccc(C)cc2)N1 (stereo unspecified) | inconclusive: 1.16 µM [inhibitor, full curve, poor fit] |
| O=C(Nc1nc2ccccc2c(=O)[nH]1)c1ccccc1SCc1ccccc1 | inconclusive: 23.1 µM [inhibitor, single point] |
| COc1ccc(CCNC(=O)c2cc(-c3ccc(C)c(C)c3O)n[nH]2)cc1OC | inconclusive: 29.1 µM [inhibitor, single point] |
| CC(C)(C)CC(C)(C)NCC(=O)Nc1c2c(nc3ccccc13)CCC2 | inconclusive: 23.1 µM [inhibitor, partial curve, poor fit] |
| CC(Sc1nc2cc(Cl)ccc2s1)C(=O)Nc1ccc2c(c1)OCO2 (stereo unspecified) | inconclusive: 16.4 µM [activator, partial curve] |
| CCOC(=O)c1sc2nc3n(c(=O)c2c1C)CCC3 | inconclusive: 23.1 µM [activator, partial curve, poor fit] |
| COc1cc([N+](=O)[O-])ccc1NC(=O)N1CCCCCC1 | inconclusive: 29.1 µM [activator, partial curve, poor fit] |
| Cc1ccc2cc(CCNC(=O)c3ccco3)c(=O)[nH]c2c1C | inconclusive: 4.11 µM [activator, full curve] |
| O=c1c2ccccc2nc(SCc2ccccc2)n1CC1CCCO1 (stereo unspecified) | inactive |
| Cc1cc(C)n(-c2cc(C(C)(C)C)nc3c(-c4ccccc4)cnn23)n1 | inconclusive: 9.2 µM [activator, partial curve] |
| Cc1cc(C)cc(OC(=O)CCN2C(=O)c3ccccc3C2=O)c1 | inactive |
| COc1ccc(C(=O)NCCCNC(=O)c2ccco2)cc1OC | inconclusive: 20.6 µM [activator, partial curve, poor fit] |
| Cc1cc(C)n(-c2nc3ccccc3c(=O)n2OCC(=O)Nc2c(C)cccc2C)n1 | inactive |
| COc1cc(NC(=O)C2CCC(CNc3c(N4CCC(C)CC4)c(=O)c3=O)CC2)cc(OC)c1 (stereo unspecified) | inconclusive: 2.06 µM [inhibitor, full curve] |
| O=C(NCc1cn(-c2ccccc2)nc1-c1ccccc1)c1cccc([N+](=O)[O-])c1 | active: 20.6 µM |
| O=C(OCC(=O)N(C1CCCCC1)C1CCCCC1)c1ccc(Cl)nc1 | inactive |

Rewritten with bars between the fields: part of the list above.
Structure (SMILES) | Potency
CC(=O)Nc1ccc(OCC(O)CN2CCN(c3cc(Cl)ccc3C)CC2)cc1 (stereo unspecified) | inactive
O=[N+]([O-])c1cccc(C2=NC(c3ccccc3)CO2)c1 (stereo unspecified) | inconclusive: 18.4 µM [activator, partial curve]
COc1ccc(C(c2nnnn2C2CCCCC2)N2CCN(c3ccc(OC)cc3)CC2)cc1 (stereo unspecified) | inactive

(more compounds)

| Structure (SMILES) | Potency |
| --- | --- |
| Cc1cccc(N2CCN(C(=O)CCN3C(=O)C4C5C=CC(C5)C4C3=O)CC2C)c1 (stereo unspecified) | inactive |
| COc1ccc(/C=N/n2c(C)cc(C)cc2=O)cc1 | inconclusive: 16.4 µM [activator, partial curve] |
| NNc1ccc2nnc(C(F)(F)C(F)(F)C(F)(F)F)n2n1 | inactive |
| CCOC(=O)c1ccccc1NC(=S)N1CCCCC1 | inactive |
| Cc1nn(C)c(NC(=O)c2ccccc2Cl)c1Br | inactive |
| O=C(C(NS(=O)(=O)c1cccc2nsnc12)c1ccccc1)N1CCN(c2ccccc2)CC1 (stereo unspecified) | active: 16.4 µM |
| CC(C)(C)OC(=O)N1CCC(c2cc(=O)n3[nH]c(-c4ccc(Cl)cc4)cc3n2)CC1 | inconclusive: 13 µM [inhibitor, partial curve, poor fit] |
| CN(C)c1cccc(C(=O)Nc2ccc(N3CCOCC3)cc2)c1 | inconclusive: 16.4 µM [activator, partial curve] |
| COc1ccc(S(=O)(=O)N(C)c2ccc(C(=O)Nc3cccnc3)cc2)cc1OC | active: 20.6 µM |
| CC1CN(C(=O)CSc2nc(N)cc(N)n2)CC(C)O1 (stereo unspecified) | inconclusive: 18.3 µM [activator, partial curve, poor fit] |
| CC(C)(C)c1csc(NC(=O)c2ccc3nccnc3c2)n1 | inconclusive: 13 µM [activator, partial curve] |
| Cc1ccc(NC(=O)CCN2C(=O)c3ccccc3Sc3ncccc32)cc1 | inactive |
| Cc1ccc(CSc2ncn(-c3ccccc3)n2)cc1 | inconclusive: 18.4 µM [activator, single point] |
| COc1ccccc1CCNC(=O)c1cc(-c2ccncc2)nc2ccc(Br)cc12 | inconclusive: 25.9 µM [inhibitor, single point] |
| C=CCc1ccc(OCCOCCOc2cccc3ccc(C)nc23)c(OC)c1 | inconclusive: 18.4 µM [inhibitor, partial curve] |
| CC12CCC(C/C1=N\N=C1\NC(=O)/C(=C\c3cccc(Br)c3)S1)C2(C)C (stereo unspecified) | inactive |
| COc1cccc(/C=N/NC(=O)c2ccc(=O)n(C)c2)c1OC | inconclusive: 14.6 µM [activator, partial curve, poor fit] |
| O=C(NNC1=NCCCCC1)Nc1cccc(Cl)c1 | inconclusive: 20.6 µM [activator, partial curve] |
| COc1ccc(Br)cc1/C=N/Nc1ccccn1 | inactive |
| Cc1cc(-c2nnco2)c(C)n1-c1ccc(F)cc1 | inconclusive: 29.1 µM [activator, single point] |
| Cc1ccc(S(=O)(=O)NCc2ccncc2)cc1 | inconclusive: 1.64 µM [inhibitor, partial curve] |
| N#Cc1cccc(NC(=O)c2nc(-c3ccccc3)n(-c3ccccc3)n2)c1 | inconclusive: 35.5 µM [inhibitor, single point] |
| C=CCN1CCc2c(cc(O)c(O)c2Cl)C(c2ccccc2)C1 (stereo unspecified) | inconclusive: 23.1 µM [inhibitor, partial curve, poor fit] |
